Assay results reported in publication PMC5548808, “Structural and functional insights into the lipopolysaccharide ABC transporter LptB2FG” (Nature Communications, 2017).
These are yes or no findings as the source states them, for the method shown. A result given as binding can be weak or reduced; the word gives no strength.

By UniProt entry, the sequences of proteins in these tests, tags left out. Where a name states a change or a piece, a line headed by the entry shows the natural chain unless it says otherwise.
UniProt A0A1Y0Q3P9: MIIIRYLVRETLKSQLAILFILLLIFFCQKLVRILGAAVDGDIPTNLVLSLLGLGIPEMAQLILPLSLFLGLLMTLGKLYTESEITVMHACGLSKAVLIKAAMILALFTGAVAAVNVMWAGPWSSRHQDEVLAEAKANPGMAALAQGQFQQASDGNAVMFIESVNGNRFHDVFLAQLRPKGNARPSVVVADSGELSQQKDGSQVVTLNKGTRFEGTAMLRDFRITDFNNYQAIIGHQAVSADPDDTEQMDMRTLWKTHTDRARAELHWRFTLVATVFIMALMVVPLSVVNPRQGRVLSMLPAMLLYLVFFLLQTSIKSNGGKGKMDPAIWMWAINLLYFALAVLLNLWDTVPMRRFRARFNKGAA
UniProt A0A1Y0Q3C0: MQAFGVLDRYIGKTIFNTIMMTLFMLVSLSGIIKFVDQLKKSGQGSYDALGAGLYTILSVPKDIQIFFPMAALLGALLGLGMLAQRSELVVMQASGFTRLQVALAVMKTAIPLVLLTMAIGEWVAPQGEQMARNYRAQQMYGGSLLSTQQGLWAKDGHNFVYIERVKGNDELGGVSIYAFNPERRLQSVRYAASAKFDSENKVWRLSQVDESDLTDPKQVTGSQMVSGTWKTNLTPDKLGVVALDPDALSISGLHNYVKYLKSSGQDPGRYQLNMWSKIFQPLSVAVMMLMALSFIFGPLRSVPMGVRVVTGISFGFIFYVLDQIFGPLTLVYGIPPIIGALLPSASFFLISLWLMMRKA

Experiments:
[1] = biological target: LptG of Klebsiella pneumoniae (Klebsiella pneumoniae); experiment: crystal structure; K. pneumoniae LptB2FG complex in detergent (Cymal-5, DDM, DMNG), nucleotide-free; sitting drop, room temperature, 0.1 mM MES pH 6.5, 0.1 M sodium chloride, 0.1 M lithium sulfate, 24% PEG 300; Pt-SAD, 3.7 A; both purified
[2] = biological target: LptB of Klebsiella pneumoniae (Klebsiella pneumoniae); experiment: as above

“LptF of Klebsiella pneumoniae (from UniProt A0A1Y0Q3P9)” was tested, and the binding [1] was “binds” and the binding [2] was “binds”.
With “LptG of Klebsiella pneumoniae (from UniProt A0A1Y0Q3C0)” the binding [2] was “binds”.
